Test results reported in PubChem BioAssay (Tox21).
Where “and” joins values, the source holds several entries; their conditions need not be identical. Identical values can stand only once. Inconclusive means that the source gave no clear call. Such entries were picked first, then a sample of the others. For some of these results: Potencies of inconclusive entries are doubtful fits and often do not repeat. Calls of active or inactive are those of the source. Unless noted, the call rests on the fitted dose curve; in most records, active means well fitted cell-killing curve with a large enough effect in the repeat runs; inconclusive means weak or mixed curves, or effect the other way; inactive means no such curve, though single readings can be large or run the other way.

The chains behind the UniProt entries cited, without tags or fusion partners. Where a name states a change or a piece, a line headed by the entry shows the natural chain unless it says otherwise.
UniProt P19793: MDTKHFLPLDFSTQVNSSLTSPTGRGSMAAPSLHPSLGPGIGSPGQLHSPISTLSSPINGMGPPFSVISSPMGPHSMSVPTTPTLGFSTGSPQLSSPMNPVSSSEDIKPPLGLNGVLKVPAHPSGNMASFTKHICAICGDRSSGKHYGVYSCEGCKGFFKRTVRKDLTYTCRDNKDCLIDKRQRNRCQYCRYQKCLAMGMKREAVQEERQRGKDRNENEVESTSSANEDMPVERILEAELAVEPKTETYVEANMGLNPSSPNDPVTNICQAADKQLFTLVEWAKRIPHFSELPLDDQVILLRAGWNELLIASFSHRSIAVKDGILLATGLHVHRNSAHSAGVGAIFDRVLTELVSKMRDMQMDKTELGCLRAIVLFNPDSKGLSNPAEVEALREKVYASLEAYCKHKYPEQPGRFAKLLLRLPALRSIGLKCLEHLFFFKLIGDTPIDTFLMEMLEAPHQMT

Molecular target: Retinoic acid receptor RXR-alpha (Homo sapiens) (UniProt P19793)
Assay: qHTS assay to identify small molecule agonists of the RXR signaling pathway (AID 1159527; calls by dose curve; further: nearly all actives have a fitted effect of over 35% in size)
Settings: HEK293T RXRa-UAS-bla, beta-lactamase ratio, 16 h; at 35.3 µM (top of the series)
Procedure, shortened: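 Using 9-cis retinoic acid as the reference agonist, chemicals were tested in HEK 293T cells […] for 16 hr; substrate loading lasted 2 hr at room temperature.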
On the % scale 0 is the no-effect control and ±100 the full control effect.

Compound | activation
CC/C(=C(/CC)c1ccc(O)cc1)c1ccc(O)cc1 | inactive: -14.7%
Oc1cccc(O)c1 | inconclusive: 2.95%
O=c1n(CCCN2CCN(c3cccc(Cl)c3)CC2)nc2ccccn12 | inactive: -13.7%

System: not listed separately
Assay: qHTS assay to identify small molecule agonists of the RXR signaling pathway - cell viability counter screen (AID 1159529); further: nearly all actives have a fitted effect of over 50% in size; further: potency means the concentration at half of the fitted maximal effect
Settings: RXR-alpha-bla HEK293T viability, CellTiter-Glo, 16 h; series mostly up to 76.8 µM
Procedure, shortened: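 Compounds dissolved in DMSO were pinned onto HEK 293T cells carrying a beta-lactamase reporter under RXR-alpha control and incubated 16 hr. Cytotoxicity was then quantified by CellTiter-Glo luminescence.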

Compound | Potency
CC/C(=C(/CC)c1ccc(O)cc1)c1ccc(O)cc1 | inconclusive: 54.5 µM [cytotoxic, single point] and inconclusive: 54.9 µM [cytotoxic, single point] and inactive
OC1CCCCCCCCCCC1 | inactive
Oc1cccc(O)c1 | inactive
O=c1n(CCCN2CCN(c3cccc(Cl)c3)CC2)nc2ccccn12 | inconclusive: 24.5 µM [cytotoxic, partial curve]
